Measured values published in US20180009892A1.
No constants are given. Whether binding was seen depends on the method and setting. Some binding calls cover weakened binding; strength is not graded here.

Amino acid sequences for entries named in this document (tags omitted). A change or cut given only in a name is not applied to a line headed by its entry.
UniProt Q01973: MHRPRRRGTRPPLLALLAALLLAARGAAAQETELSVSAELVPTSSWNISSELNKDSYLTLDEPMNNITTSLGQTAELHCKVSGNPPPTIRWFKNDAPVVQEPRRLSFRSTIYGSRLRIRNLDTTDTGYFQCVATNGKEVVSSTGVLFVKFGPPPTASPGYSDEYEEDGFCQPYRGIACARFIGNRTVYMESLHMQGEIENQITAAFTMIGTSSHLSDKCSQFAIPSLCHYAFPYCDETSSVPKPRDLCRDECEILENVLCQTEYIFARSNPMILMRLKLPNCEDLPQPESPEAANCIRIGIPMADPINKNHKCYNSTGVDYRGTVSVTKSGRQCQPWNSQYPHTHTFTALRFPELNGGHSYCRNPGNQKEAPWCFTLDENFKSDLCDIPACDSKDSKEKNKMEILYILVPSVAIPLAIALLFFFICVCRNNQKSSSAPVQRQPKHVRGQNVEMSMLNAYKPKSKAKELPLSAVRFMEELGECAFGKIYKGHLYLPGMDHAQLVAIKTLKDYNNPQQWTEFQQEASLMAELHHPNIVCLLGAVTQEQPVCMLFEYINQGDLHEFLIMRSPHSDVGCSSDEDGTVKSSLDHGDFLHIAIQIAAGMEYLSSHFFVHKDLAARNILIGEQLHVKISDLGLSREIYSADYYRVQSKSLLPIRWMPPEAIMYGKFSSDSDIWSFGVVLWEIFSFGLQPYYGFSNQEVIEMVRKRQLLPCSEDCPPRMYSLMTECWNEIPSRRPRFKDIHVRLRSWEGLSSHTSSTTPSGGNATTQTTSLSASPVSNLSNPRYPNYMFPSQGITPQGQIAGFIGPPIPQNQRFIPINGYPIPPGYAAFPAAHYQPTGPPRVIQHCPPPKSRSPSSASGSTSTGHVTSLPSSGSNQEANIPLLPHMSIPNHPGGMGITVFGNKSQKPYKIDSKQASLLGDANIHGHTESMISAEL

Key:
[1] = biological target: human ROR1 on the cell surface (human) (UniProt Q01973); assay: cell ELISA, phage
[2] = biological target: human ROR1 extracellular domain (ECD) protein (human) (UniProt Q01973); assay: protein ELISA, phage
[3] = biological target: human ROR1 on the cell surface (human) (UniProt Q01973); assay: flow cytometry, CLL cells of patient 13, isotype control MFI subtracted

binding [1]	binding [2]	binding [3]	Binder
binds	binds	binds	P601-128 (scFv, V domains shown) VH: EVQLVQSGAEVKKPGESLKISCKGSGYSFSRYWIGWVRQMPGKGLEWMGIIYPRDSDTRYSPSFQGQVTISADKSISTAYLQWSSLKASDTAMYYCATPVVTAGAFDIWGQGTMVTVSS VL: DIQMTQSPSSVSASVGDRVTITCRASQGISSWLAWYQQKPGKAPKLLIYAASSLQSGVPSRFSGSGSGTDFTLTISSLQPEDFATYYCQQANSFPLTFGGGTKVEIK
–	–	binds	Antibody 601-14 (antibody, V domains shown) VH: QVQLVQSGAEVKKPGESLKISCKDSGYSFTNYWLGWVRQMPGKGLEWMGIIYPGDSDTRYSPSFRGQVTISADKSISTAYLQWSSLKASDTAMYYCARLNLATHTAFDIWGQGTTVTVSS VL: QSVLTQPASVSGSPGQSITISCTGTSSDVGGYNYVSWYQQHPGKAPKLMIYDVSNRPSGVSNRFSGSKSGNTASLTISGLQAEDEADYYCSSYTSSSTLWVFGGGTKLTVLG
